# The supplement of paper PMC8728848
# The list shows a part of the results.
# B1: BIp1-His (Cryptococcus neoformans) (protein)
# chain: MFTKIFVALFAATAVLSAPVESAEKRITHTGRATFYSPSVGIGACGWQNTDEELVVALNAPQYALNADHNCGQSVRITNEQNGNQEIAKVVDLCPGCNDGDLDMSPALFGALNNNDFDQGVFPISWNFLPRDDTSSSN
# Experiments:
# Assay in all cases: glycan array binding signal (z-score within array); higher = stronger binding
# Details in all cases: glycan notation: IUPAC condensed, linker removed
# [1] = molecular target: Fuc(a1-2)[GalNAc(b1-3)]Gal
# Method in brief: (§1)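 Glycan array data came from 3228 arrays in the Consortium for Functional Glycomics database, and only arrays with an available protein sequence were kept. Glycan names were put into IUPAC-condensed notation, and columns mapping to the same glycan were averaged. The binding signal is a within-array Z-score, averaged across arrays of one protein sequence run at different concentrations or buffers and across linkers. A negative Z-score can be read as non-binding.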
# Fuc(a1-3)GlcNAc = molecular target: Fuc(a1-3)GlcNAc
# Method in brief: as §1
# [2] = molecular target: Fuc(a1-3)[Gal(b1-4)]Glc6S
# Method in brief: as §1
# [3] = molecular target: Fuc(a1-3)[Gal(b1-4)]GlcNAc
# Method in brief: as §1
# [4] = molecular target: Fuc(a1-3)[Gal(b1-4)]GlcNAc(b1-2)Man
# Method in brief: as §1
# [5] = molecular target: Fuc(a1-3)[Gal(b1-4)]GlcNAc(b1-2)Man(a1-3)[Fuc(a1-3)[Gal(b1-4)]GlcNAc(b1-2)Man(a1-6)]Man(b1-4)GlcNAc(b1-4)GlcNAc
# Method in brief: as §1
# [6] = molecular target: Fuc(a1-3)[Gal(b1-4)]GlcNAc(b1-2)Man(a1-3)[Fuc(a1-3)[Gal(b1-4)]GlcNAc(b1-2)Man(a1-6)]Man(b1-4)GlcNAc(b1-4)[Fuc(a1-6)]GlcNAc
# Method in brief: as §1
# [7] = molecular target: Fuc(a1-3)[Gal(b1-4)]GlcNAc(b1-3)Gal(b1-3)[Fuc(a1-4)]GlcNAc
# Method in brief: as §1
# [8] = molecular target: Fuc(a1-3)[Gal(b1-4)]GlcNAc(b1-3)Gal(b1-4)[Fuc(a1-3)]GlcNAc
# Method in brief: as §1
# [9] = molecular target: Fuc(a1-3)[Gal(b1-4)]GlcNAc(b1-3)Gal(b1-4)[Fuc(a1-3)]GlcNAc(b1-3)Gal(b1-4)[Fuc(a1-3)]GlcNAc
# Method in brief: as §1
# [10] = molecular target: Fuc(a1-3)[Gal(b1-4)]GlcNAc(b1-3)GalNAc
# Method in brief: as §1
# [11] = molecular target: Fuc(a1-3)[Gal(b1-4)]GlcNAc(b1-6)GalNAc
# Method in brief: as §1
# [12] = molecular target: Fuc(a1-3)[Gal(b1-4)]GlcNAc(b1-6)[Gal(b1-3)GlcNAc(b1-3)]Gal(b1-4)Glc
# Method in brief: as §1
# [13] = molecular target: Fuc(a1-3)[Gal(b1-4)]GlcNAc6S
# Method in brief: as §1
# [14] = molecular target: Fuc(a1-3)[Gal3S(b1-4)]Glc
# Method in brief: as §1
# [15] = molecular target: Fuc(a1-3)[Gal3S(b1-4)]GlcNAc
# Method in brief: as §1
# [16] = molecular target: Fuc(a1-3)[Gal3S(b1-4)]GlcNAc6S
# Method in brief: as §1
# [17] = molecular target: Fuc(a1-3)[GalNAc(b1-4)]GlcNAc
# Method in brief: as §1
# [18] = molecular target: Fuc(a1-3)[GalNAc(b1-4)]GlcNAc6S
# Method in brief: as §1
# Fuc(a1-4)GlcNAc = molecular target: Fuc(a1-4)GlcNAc
# Method in brief: as §1
# Fuc(b1-3)GlcNAc = molecular target: Fuc(b1-3)GlcNAc
# Method in brief: as §1
# Gal(a1-2)Gal = molecular target: Gal(a1-2)Gal
# Method in brief: as §1
# Gal(a1-3)Gal = molecular target: Gal(a1-3)Gal
# Method in brief: as §1
# Gal(a1-3)Gal(b1-3)GlcNAc = molecular target: Gal(a1-3)Gal(b1-3)GlcNAc
# Method in brief: as §1
# [19] = molecular target: Gal(a1-3)Gal(b1-3)GlcNAc(b1-2)Man
# Method in brief: as §1
# [20] = molecular target: Gal(a1-3)Gal(b1-3)GlcNAc(b1-2)Man(a1-3)[Gal(a1-3)Gal(b1-3)GlcNAc(b1-2)Man(a1-6)]Man(b1-4)GlcNAc(b1-4)GlcNAc
# Method in brief: as §1
# [21] = molecular target: Gal(a1-3)Gal(b1-3)GlcNAc(b1-3)GalNAc
# Method in brief: as §1
# [22] = molecular target: Gal(a1-3)Gal(b1-3)GlcNAc(b1-6)GalNAc
# Method in brief: as §1
# [23] = molecular target: Gal(a1-3)Gal(b1-3)[Fuc(a1-4)]GlcNAc(b1-2)Man(a1-3)[Gal(a1-3)Gal(b1-3)[Fuc(a1-4)]GlcNAc(b1-2)Man(a1-6)]Man(b1-4)GlcNAc(b1-4)GlcNAc
# Method in brief: as §1
# Gal(a1-3)Gal(b1-4)Glc = molecular target: Gal(a1-3)Gal(b1-4)Glc
# Method in brief: as §1
binder,measurement,setting,value
B1,glycan array binding signal (z-score),[1],-0.374
same,glycan array binding signal (z-score),Fuc(a1-3)GlcNAc,-0.478
same,glycan array binding signal (z-score),[2],0.548
same,glycan array binding signal (z-score),[3],0.066
same,glycan array binding signal (z-score),[4],0.629
same,glycan array binding signal (z-score),[5],-0.788
same,glycan array binding signal (z-score),[6],1.39
same,glycan array binding signal (z-score),[7],-0.676
same,glycan array binding signal (z-score),[8],0.071
same,glycan array binding signal (z-score),[9],-1.22
same,glycan array binding signal (z-score),[10],-0.46
same,glycan array binding signal (z-score),[11],-0.576
same,glycan array binding signal (z-score),[12],-0.013
same,glycan array binding signal (z-score),[13],0.471
same,glycan array binding signal (z-score),[14],-0.402
same,glycan array binding signal (z-score),[15],-0.621
same,glycan array binding signal (z-score),[16],-0.121
same,glycan array binding signal (z-score),[17],0.029
same,glycan array binding signal (z-score),[18],-0.56
same,glycan array binding signal (z-score),Fuc(a1-4)GlcNAc,-0.655
same,glycan array binding signal (z-score),Fuc(b1-3)GlcNAc,-0.55
same,glycan array binding signal (z-score),Gal(a1-2)Gal,-1.13
same,glycan array binding signal (z-score),Gal(a1-3)Gal,0.312
same,glycan array binding signal (z-score),Gal(a1-3)Gal(b1-3)GlcNAc,-0.478
same,glycan array binding signal (z-score),[19],-0.74
same,glycan array binding signal (z-score),[20],0.961
same,glycan array binding signal (z-score),[21],-0.137
same,glycan array binding signal (z-score),[22],-0.47
same,glycan array binding signal (z-score),[23],1.5
same,glycan array binding signal (z-score),Gal(a1-3)Gal(b1-4)Glc,-0.171

# Part of the list above, as tab-separated lines.
binder	measurement	setting	value
B1	glycan array binding signal (z-score)	[8]	0.071
same	glycan array binding signal (z-score)	[9]	-1.22
